# According to PMC3856054:
# No constants are given. Whether binding was seen depends on the method and setting. Binding seen in cells or lysates may run through a third protein. Binding calls can cover weak binding; strength is not graded here. Sequences can lack the tags named with a protein.
# B1: SEPT12-FLAG (protein, UniProt Q8IYM1 1-358)
# chain: MDPLRRSPSPCLSSQPSSPSTPPCEMLGPVGIEAVLDQLKIKAMKMGFEFNIMVVGQSGLGKSTMVNTLFKSKVWKSNPPGLGVPTPQTLQLHSLTHVIEEKGVKLKLTVTDTPGFGDQINNDNCWDPILGYINEQYEQYLQEEILITRQRHIPDTRVHCCVYFVPPTGHCLRPLDIEFLQRLCRTVNVVPVIARADSLTMEEREAFRRRIQQNLRTHCIDVYPQMCFDEDINDKILNSKLRDRIPFAVVGADQEHLVNGRCVLGRKTKWGIIEVENMAHCEFPLLRDLLIRSHLQDLKDITHNIHYENYRVIRLNESHLLPRGPGWVNLAPASPGQLTTPRTFKVCRGAHDDSDDEF
# B2: SEPT12-FLAG (in 293T cells) (protein, UniProt Q8IYM1 1-358)
# chain: MDPLRRSPSPCLSSQPSSPSTPPCEMLGPVGIEAVLDQLKIKAMKMGFEFNIMVVGQSGLGKSTMVNTLFKSKVWKSNPPGLGVPTPQTLQLHSLTHVIEEKGVKLKLTVTDTPGFGDQINNDNCWDPILGYINEQYEQYLQEEILITRQRHIPDTRVHCCVYFVPPTGHCLRPLDIEFLQRLCRTVNVVPVIARADSLTMEEREAFRRRIQQNLRTHCIDVYPQMCFDEDINDKILNSKLRDRIPFAVVGADQEHLVNGRCVLGRKTKWGIIEVENMAHCEFPLLRDLLIRSHLQDLKDITHNIHYENYRVIRLNESHLLPRGPGWVNLAPASPGQLTTPRTFKVCRGAHDDSDDEF
# Key:
# [1] = target: T1, SEPT12-FLAG (in 293T cells) (human) (UniProt Q8IYM1); experiment: co-IP; same co-IP in 293T cells (Figure S1)
# T1 sequence: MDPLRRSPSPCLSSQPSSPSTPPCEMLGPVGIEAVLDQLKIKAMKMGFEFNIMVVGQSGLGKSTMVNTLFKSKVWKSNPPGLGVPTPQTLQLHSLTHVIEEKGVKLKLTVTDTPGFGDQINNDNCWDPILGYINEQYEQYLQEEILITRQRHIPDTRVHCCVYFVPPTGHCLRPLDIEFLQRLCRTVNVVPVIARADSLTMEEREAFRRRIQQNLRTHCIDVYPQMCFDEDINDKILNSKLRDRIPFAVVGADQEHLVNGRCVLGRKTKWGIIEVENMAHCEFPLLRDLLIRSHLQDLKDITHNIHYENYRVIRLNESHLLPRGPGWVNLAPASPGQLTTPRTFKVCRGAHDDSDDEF
# SEPT12-FLAG (human) = target: T2, SEPT12-FLAG (human) (UniProt Q8IYM1); experiment: co-IP; lysates of NTERA-2 d.D1 cells transfected with pFLAG-SEPTIN12 (4 mg protein in 1 mL, pre-cleared with protein A/G beads); IP overnight with anti-FLAG, anti-α-tubulin, anti-β-tubulin or control IgG; washed twice with 1x PBS; Western blot
# T2 sequence: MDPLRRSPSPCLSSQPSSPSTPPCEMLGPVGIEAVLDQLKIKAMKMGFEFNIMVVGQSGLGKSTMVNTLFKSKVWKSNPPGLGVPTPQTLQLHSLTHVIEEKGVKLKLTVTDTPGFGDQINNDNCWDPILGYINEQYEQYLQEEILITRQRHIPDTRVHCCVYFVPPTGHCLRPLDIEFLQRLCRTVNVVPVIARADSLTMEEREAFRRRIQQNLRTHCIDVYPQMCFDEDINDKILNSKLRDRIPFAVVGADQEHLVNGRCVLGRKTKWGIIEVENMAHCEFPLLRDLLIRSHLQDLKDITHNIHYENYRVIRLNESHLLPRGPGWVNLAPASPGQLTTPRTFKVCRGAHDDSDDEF
# SEPT12-GFP (human) = target: T3, SEPT12-GFP (human) (UniProt Q8IYM1); experiment: co-IP; testicular lysates from SEPTIN12-transgenic mice; IP with anti-GFP antibody, IgG as control; blot with anti-GFP, anti-α-tubulin and anti-β-tubulin
# T3 sequence: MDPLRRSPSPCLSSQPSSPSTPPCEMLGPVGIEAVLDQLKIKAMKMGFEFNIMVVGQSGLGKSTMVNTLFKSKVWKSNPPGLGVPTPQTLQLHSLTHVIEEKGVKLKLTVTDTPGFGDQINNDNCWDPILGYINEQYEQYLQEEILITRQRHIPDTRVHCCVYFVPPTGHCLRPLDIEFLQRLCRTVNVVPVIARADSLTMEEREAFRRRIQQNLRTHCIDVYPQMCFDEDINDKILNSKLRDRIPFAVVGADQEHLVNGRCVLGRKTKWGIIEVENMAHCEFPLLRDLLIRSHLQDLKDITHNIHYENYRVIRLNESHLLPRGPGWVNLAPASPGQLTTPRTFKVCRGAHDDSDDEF
# [2] = target: β-tubulin (human (endogenous in NTERA-2 d.D1)); experiment: co-IP; lysates of NTERA-2 d.D1 cells transfected with pFLAG-SEPTIN12 (4 mg protein in 1 mL, pre-cleared with protein A/G beads); IP overnight with anti-FLAG, anti-α-tubulin, anti-β-tubulin or control IgG; washed twice with 1x PBS; Western blot
# [3] = target: α-tubulin (human (endogenous in NTERA-2 d.D1)); experiment: as above
# [4] = target: α-tubulin (293T cells) (human (endogenous in 293T)); experiment: co-IP; same co-IP in 293T cells (Figure S1)
# [5] = target: β-tubulin (293T cells) (human (endogenous in 293T)); experiment: co-IP; same co-IP in 293T cells (Figure S1)
molecule,measurement,setting,value
α-tubulin (293T cells) (human (endogenous in 293T)),binding,[1],binds
α-tubulin (human (endogenous in NTERA-2 d.D1)),binding,SEPT12-FLAG (human),binds
α-tubulin (mouse testis),binding,SEPT12-GFP (human),binds
β-tubulin (293T cells) (human (endogenous in 293T)),binding,[1],binds
β-tubulin (human (endogenous in NTERA-2 d.D1)),binding,SEPT12-FLAG (human),binds
β-tubulin (mouse testis),binding,SEPT12-GFP (human),binds
B1,binding,[2],binds
same,binding,[3],binds
B2,binding,[4],binds
same,binding,[5],binds
